# Test results: the supplement of paper PMC8728848
# The list shows a part of the results.
# Experiments:
# Test in all cases: glycan array binding signal (z-score within array); higher = stronger binding
# Details in all cases: glycan notation: IUPAC condensed, linker removed
# [1] = target: Fuc(a1-2)Gal(b1-4)GlcNAc(b1-3)Gal(b1-4)GlcNAc(b1-3)Gal(b1-4)GlcNAc
# Summary of the method: (§1)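 Glycan array data came from 3228 arrays in the Consortium for Functional Glycomics database, and only arrays with an available protein sequence were kept. Glycan names were put into IUPAC-condensed notation, and columns mapping to the same glycan were averaged. The binding signal is a within-array Z-score, averaged across arrays of one protein sequence run at different concentrations or buffers and across linkers. A negative Z-score can be read as non-binding.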
# [2] = target: Fuc(a1-2)Gal(b1-4)GlcNAc(b1-3)GalNAc
# Summary of the method: as §1
# [3] = target: Fuc(a1-2)Gal(b1-4)GlcNAc(b1-3)[Fuc(a1-2)Gal(b1-4)GlcNAc(b1-6)]GalNAc
# Summary of the method: as §1
# [4] = target: Fuc(a1-2)Gal(b1-4)GlcNAc(b1-3)[Fuc(a1-3)[Gal(b1-4)]GlcNAc(b1-6)]Gal(b1-4)Glc
# Summary of the method: as §1
# [5] = target: Fuc(a1-2)Gal(b1-4)GlcNAc(b1-6)GalNAc
# Summary of the method: as §1
# [6] = target: Fuc(a1-2)Gal(b1-4)GlcNAc6S
# Summary of the method: as §1
# [7] = target: Fuc(a1-2)Gal(b1-4)[Fuc(a1-3)]GlcNAc
# Summary of the method: as §1
# [8] = target: Fuc(a1-2)Gal(b1-4)[Fuc(a1-3)]GlcNAc(b1-2)Man(a1-3)[Fuc(a1-2)Gal(b1-4)[Fuc(a1-3)]GlcNAc(b1-2)Man(a1-6)]Man(b1-4)GlcNAc(b1-4)[Fuc(a1-6)]GlcNAc
# Summary of the method: as §1
# [9] = target: Fuc(a1-2)Gal(b1-4)[Fuc(a1-3)]GlcNAc(b1-2)[Fuc(a1-2)Gal(b1-4)[Fuc(a1-3)]GlcNAc(b1-4)]Man(a1-3)[Fuc(a1-2)Gal(b1-4)[Fuc(a1-3)]GlcNAc(b1-2)Man(a1-6)]Man(b1-4)GlcNAc(b1-4)GlcNAc
# Summary of the method: as §1
# [10] = target: Fuc(a1-2)Gal(b1-4)[Fuc(a1-3)]GlcNAc(b1-3)Gal(b1-4)[Fuc(a1-3)]GlcNAc
# Summary of the method: as §1
# [11] = target: Fuc(a1-2)Gal(b1-4)[Fuc(a1-3)]GlcNAc(b1-3)Gal(b1-4)[Fuc(a1-3)]GlcNAc(b1-3)Gal(b1-4)[Fuc(a1-3)]GlcNAc
# Summary of the method: as §1
# [12] = target: Fuc(a1-2)Gal(b1-4)[Fuc(a1-3)]GlcNAc(b1-3)GalNAc
# Summary of the method: as §1
# [13] = target: Fuc(a1-2)Gal(b1-4)[Fuc(a1-3)]GlcNAc(b1-3)[Neu5Ac(a2-6)Gal(b1-4)GlcNAc(b1-6)]Gal(b1-4)Glc
# Summary of the method: as §1
# [14] = target: Fuc(a1-2)Gal3S(b1-4)GlcNAc
# Summary of the method: as §1
# [15] = target: Fuc(a1-2)Gal6S(b1-3)GlcNAc
# Summary of the method: as §1
# [16] = target: Fuc(a1-2)Gal6S(b1-3)GlcNAc6S
# Summary of the method: as §1
# [17] = target: Fuc(a1-2)Gal6S(b1-4)Glc
# Summary of the method: as §1
# [18] = target: Fuc(a1-2)Gal6S(b1-4)Glc6S
# Summary of the method: as §1
# [19] = target: Fuc(a1-2)[Gal(a1-3)]Gal
# Summary of the method: as §1
# [20] = target: Fuc(a1-2)[Gal(a1-3)]Gal(b1-3)GalNAc
# Summary of the method: as §1
# [21] = target: Fuc(a1-2)[Gal(a1-3)]Gal(b1-3)GalNAc(b1-3)Gal(a1-4)Gal(b1-4)Glc
# Summary of the method: as §1
# [22] = target: Fuc(a1-2)[Gal(a1-3)]Gal(b1-3)GlcNAc
# Summary of the method: as §1
# [23] = target: Fuc(a1-2)[Gal(a1-3)]Gal(b1-3)GlcNAc(b1-2)Man(a1-3)[Fuc(a1-2)[Gal(a1-3)]Gal(b1-3)GlcNAc(b1-2)Man(a1-6)]Man(b1-4)GlcNAc(b1-4)GlcNAc
# Summary of the method: as §1
# [24] = target: Fuc(a1-2)[Gal(a1-3)]Gal(b1-3)GlcNAc(b1-2)Man(a1-3)[Fuc(a1-2)[Gal(a1-3)]Gal(b1-3)GlcNAc(b1-2)Man(a1-6)]Man(b1-4)GlcNAc(b1-4)[Fuc(a1-6)]GlcNAc
# Summary of the method: as §1
# [25] = target: Fuc(a1-2)[Gal(a1-3)]Gal(b1-3)GlcNAc(b1-3)GalNAc
# Summary of the method: as §1
# [26] = target: Fuc(a1-2)[Gal(a1-3)]Gal(b1-3)GlcNAc(b1-6)GalNAc
# Summary of the method: as §1
# [27] = target: Fuc(a1-2)[Gal(a1-3)]Gal(b1-4)Glc
# Summary of the method: as §1
# [28] = target: Fuc(a1-2)[Gal(a1-3)]Gal(b1-4)GlcNAc
# Summary of the method: as §1
# [29] = target: Fuc(a1-2)[Gal(a1-3)]Gal(b1-4)GlcNAc(b1-2)Man
# Summary of the method: as §1
# [30] = target: Fuc(a1-2)[Gal(a1-3)]Gal(b1-4)GlcNAc(b1-2)Man(a1-3)[Fuc(a1-2)[Gal(a1-3)]Gal(b1-4)GlcNAc(b1-2)Man(a1-6)]Man(b1-4)GlcNAc(b1-4)GlcNAc
# Summary of the method: as §1
# [31] = target: Fuc(a1-2)[Gal(a1-3)]Gal(b1-4)GlcNAc(b1-2)Man(a1-3)[Fuc(a1-2)[Gal(a1-3)]Gal(b1-4)GlcNAc(b1-2)Man(a1-6)]Man(b1-4)GlcNAc(b1-4)[Fuc(a1-6)]GlcNAc
# Summary of the method: as §1
# [32] = target: Fuc(a1-2)[Gal(a1-3)]Gal(b1-4)GlcNAc(b1-3)GalNAc
# Summary of the method: as §1
# [33] = target: Fuc(a1-2)[Gal(a1-3)]Gal(b1-4)GlcNAc(b1-3)[Fuc(a1-2)[Gal(a1-3)]Gal(b1-4)GlcNAc(b1-6)]GalNAc
# Summary of the method: as §1
# [34] = target: Fuc(a1-2)[Gal(a1-3)]Gal(b1-4)GlcNAc(b1-6)GalNAc
# Summary of the method: as §1
# [35] = target: Fuc(a1-2)[Gal(a1-3)]Gal(b1-4)[Fuc(a1-3)]Glc
# Summary of the method: as §1
# [36] = target: Fuc(a1-2)[Gal(a1-3)]Gal(b1-4)[Fuc(a1-3)]GlcNAc
# Summary of the method: as §1
# [37] = target: Fuc(a1-2)[Gal(a1-3)]Gal(b1-4)[Fuc(a1-3)]GlcNAc(b1-3)GalNAc
# Summary of the method: as §1
binder,measurement,setting,value
EUL D1A (Oryza sativa) (protein) MFGFGHHHNQAPAAPSDPNQIFKIFCRANENYCLTVRDSAVVLAPVNPKDEHQHWFKDMRFSTKVKDGEGMPAFALVNKATGLAVKHSLGQSHPVKLVPFNPEYEDASVLWTESKDVGKGFRCIRMVNNTRLNLDAFHGDKDHGGVRDGTTVVLWEWCKGDNQSWKILPWGPEAHSSSPGAATACTIGGVPVHTVRVFSAAGEDYCLTVRNGTACLAPKNPRDDYQHWIKDMRHSNKIRDEEGYPAFALVNKVTGEAIKHSTGQGHPVKLVPYNPEYQDESVLWTESKDVGKGFRCIRMVNNIYLNFDAFHGDKDHGGIHDGTEIVLWKWCEGDNQRWKILPWILEQKLISEEDLNSAVDHHHHHH,glycan array binding signal (z-score),[1],0.796
same,glycan array binding signal (z-score),[2],-0.895
same,glycan array binding signal (z-score),[3],-1.1
same,glycan array binding signal (z-score),[4],0.573
same,glycan array binding signal (z-score),[5],1.97
same,glycan array binding signal (z-score),[6],-0.561
same,glycan array binding signal (z-score),[7],0.235
same,glycan array binding signal (z-score),[8],1.27
same,glycan array binding signal (z-score),[9],-1.42
same,glycan array binding signal (z-score),[10],0.132
same,glycan array binding signal (z-score),[11],-1.66
same,glycan array binding signal (z-score),[12],-0.582
same,glycan array binding signal (z-score),[13],-0.735
same,glycan array binding signal (z-score),[14],0.727
same,glycan array binding signal (z-score),[15],0.469
same,glycan array binding signal (z-score),[16],0.73
same,glycan array binding signal (z-score),[17],-0.295
same,glycan array binding signal (z-score),[18],-0.234
same,glycan array binding signal (z-score),[19],-0.867
same,glycan array binding signal (z-score),[20],-0.151
same,glycan array binding signal (z-score),[21],-0.417
same,glycan array binding signal (z-score),[22],0.506
same,glycan array binding signal (z-score),[23],0.066
same,glycan array binding signal (z-score),[24],-1.06
same,glycan array binding signal (z-score),[25],-0.79
same,glycan array binding signal (z-score),[26],1.11
same,glycan array binding signal (z-score),[27],-0.693
same,glycan array binding signal (z-score),[28],-0.021
same,glycan array binding signal (z-score),[29],0.55
same,glycan array binding signal (z-score),[30],1.08
same,glycan array binding signal (z-score),[31],0.315
same,glycan array binding signal (z-score),[32],0.848
same,glycan array binding signal (z-score),[33],-0.848
same,glycan array binding signal (z-score),[34],-0.876
same,glycan array binding signal (z-score),[35],-0.815
same,glycan array binding signal (z-score),[36],0.298
same,glycan array binding signal (z-score),[37],-0.037

# 2 entries from above, set out differently.
binder | measurement | setting | value
EUL D1A (Oryza sativa) (protein) MFGFGHHHNQAPAAPSDPNQIFKIFCRANENYCLTVRDSAVVLAPVNPKDEHQHWFKDMRFSTKVKDGEGMPAFALVNKATGLAVKHSLGQSHPVKLVPFNPEYEDASVLWTESKDVGKGFRCIRMVNNTRLNLDAFHGDKDHGGVRDGTTVVLWEWCKGDNQSWKILPWGPEAHSSSPGAATACTIGGVPVHTVRVFSAAGEDYCLTVRNGTACLAPKNPRDDYQHWIKDMRHSNKIRDEEGYPAFALVNKVTGEAIKHSTGQGHPVKLVPYNPEYQDESVLWTESKDVGKGFRCIRMVNNIYLNFDAFHGDKDHGGIHDGTEIVLWKWCEGDNQRWKILPWILEQKLISEEDLNSAVDHHHHHH | glycan array binding signal (z-score) | [4] | 0.573
same | glycan array binding signal (z-score) | [5] | 1.97
